Consider one molecule from PMC5029668.

Amino acid sequences for entries named in this document (tags omitted).
UniProt O15169: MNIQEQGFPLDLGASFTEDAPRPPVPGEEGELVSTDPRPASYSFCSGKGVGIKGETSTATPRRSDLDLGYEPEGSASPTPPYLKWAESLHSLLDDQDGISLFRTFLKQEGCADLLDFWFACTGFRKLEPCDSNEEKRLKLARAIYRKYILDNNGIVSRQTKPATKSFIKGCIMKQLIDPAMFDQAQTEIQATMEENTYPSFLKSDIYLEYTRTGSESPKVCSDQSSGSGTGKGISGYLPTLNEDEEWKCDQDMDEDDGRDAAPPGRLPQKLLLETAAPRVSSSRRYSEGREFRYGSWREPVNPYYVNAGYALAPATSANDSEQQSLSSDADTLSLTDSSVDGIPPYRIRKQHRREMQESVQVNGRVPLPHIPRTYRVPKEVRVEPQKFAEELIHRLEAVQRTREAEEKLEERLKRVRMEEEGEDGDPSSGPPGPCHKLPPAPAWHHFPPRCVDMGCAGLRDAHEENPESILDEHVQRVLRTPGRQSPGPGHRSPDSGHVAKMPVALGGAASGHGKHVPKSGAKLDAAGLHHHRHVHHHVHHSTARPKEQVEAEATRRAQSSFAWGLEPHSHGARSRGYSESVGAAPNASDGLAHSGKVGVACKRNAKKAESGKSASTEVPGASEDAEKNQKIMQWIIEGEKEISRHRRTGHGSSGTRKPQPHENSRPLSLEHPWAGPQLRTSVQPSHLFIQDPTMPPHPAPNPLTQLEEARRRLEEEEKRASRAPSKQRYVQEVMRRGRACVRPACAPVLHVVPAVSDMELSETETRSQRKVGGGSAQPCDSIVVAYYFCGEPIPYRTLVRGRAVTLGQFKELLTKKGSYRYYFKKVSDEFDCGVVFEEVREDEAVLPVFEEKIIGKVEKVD

Results are given in words; binding and its absence hold for the method and conditions named. In cells and extracts the contact can be indirect. Some binding calls cover weakened binding; strength is not graded here.

The target of test [1] is endogenous Axin (human (endogenous in HEK293T)) (UniProt O15169). Nature of the test: co-IP; endogenous proteins; IP with C2b antibody against Axin, blot with anti-Rnf25.
The target is the same in test [2]. Description: co-IP; two-step co-IP from HEK293T transfected with HA-Nkd1: first IP with C2b (Axin) or control IgG, eluate precipitated again with anti-HA or control IgG; repeated under knock-down of Dvl2.

B1: endogenous Rnf25 (protein, UniProt Q96BH1 1-459)
chain: MAASASAAAGEEDWVLPSEVEVLESIYLDELQVIKGNGRTSPWEIYITLHPATAEDQDSQYVCFTLVLQVPAEYPHEVPQISIRNPRGLSDEQIHTILQVLGHVAKAGLGTAMLYELIEKGKEILTDNNIPHGQCVICLYGFQEKEAFTKTPCYHYFHCHCLARYIQHMEQELKAQGQEQEQERQHATTKQKAVGVQCPVCREPLVYDLASLKAAPEPQQPMELYQPSAESLRQQEERKRLYQRQQERGGIIDLEAERNRYFISLQQPPAPAEPESAVDVSKGSQPPSTLAAELSTSPAVQSTLPPPLPVATQHICEKIPGTRSNQQRLGETQKAMLDPPKPSRGPWRQPERRHPKGGECHAPKGTRDTQELPPPEGPLKEPMDLKPEPHSQGVEGPPQEKGPGSWQGPPPRRTRDCVRWERSKGRTPGSSYPRLPRGQGAYRPGTRRESLGLESKDGS
As for B1, the binding entry in test [1] and in test [2] was “binds” each time.
